PubChem BioAssay AID504784, Drosophila RNAi Screening Center, 2011

- Aim: 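Search for regulators of lipid droplet storage in oleate-fed fly cells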 (primary screen)
- Cell system: Drosophila Kc167 embryonic cells
- Reagent: long dsRNA against Drosophila genes, about 250 ng dsRNA per well
- Duration: 4 days
- Conditions: cells fed 400 µM oleic acid bound to BSA
- Detection: 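Microscope images give a droplet-to-nucleus area ratio, taken as log and converted to a screen-wide B-score; higher values mean greater lipid storage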
- Scale: droplet/nuclear area B-score: higher = more stored lipid (overstorage)
The deposit covers about 17,000 reagents; shown is an unselected part of those with a known target gene and a result. 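Each column is one replicate's B-score; the combined score over replicates was not deposited, so single values may mislead.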 Names joined by + are all predicted targets of the reagent. Further read-outs or replicates are left out here.

Atg10 + CG18853 + CG12822 [DRSC20757] — droplet/nuclear area B-score, replicate 1: -0.428
Gpat4 [DRSC04345] — droplet/nuclear area B-score, replicate 1: -0.798
mthl7 [DRSC10852] — droplet/nuclear area B-score, replicate 1: -0.763
Aasdh [DRSC03467] — droplet/nuclear area B-score, replicate 1: -0.182
gprs [DRSC06761] — droplet/nuclear area B-score, replicate 1: -0.712
Shal [DRSC09625] — droplet/nuclear area B-score, replicate 1: -0.0853
Shal [DRSC11283] — droplet/nuclear area B-score, replicate 1: -1.59
Drgx [DRSC00278] — droplet/nuclear area B-score, replicate 1: -0.0117
Drgx [DRSC00537] — droplet/nuclear area B-score, replicate 1: 1.52
Cen [DRSC02704] — droplet/nuclear area B-score, replicate 1: -0.955
dbe [DRSC00811] — droplet/nuclear area B-score, replicate 1: 0.265
Jon25Bi [DRSC03434] — droplet/nuclear area B-score, replicate 1: -2.63
CG8543 [DRSC10990] — droplet/nuclear area B-score, replicate 1: 0.398
CG8543 [DRSC22809] — droplet/nuclear area B-score, replicate 1: 0.757
ras [DRSC18825] — droplet/nuclear area B-score, replicate 1: -0.443
CG12016 + Dpm2 [DRSC08224] — droplet/nuclear area B-score, replicate 1: -2.74
chm [DRSC03341] — droplet/nuclear area B-score, replicate 1: 1.33
Rpn12 [DRSC11275] — droplet/nuclear area B-score, replicate 1: 0.816
CG8944 [DRSC20128] — droplet/nuclear area B-score, replicate 1: 0.427
CG8944 [DRSC21342] — droplet/nuclear area B-score, replicate 1: -0.0371
CG3328 [DRSC04357] — droplet/nuclear area B-score, replicate 1: -1.58
CG42362 + CG42363 [DRSC04265] — droplet/nuclear area B-score, replicate 1: -1.49
CG5535 [DRSC10514] — droplet/nuclear area B-score, replicate 1: 0.926
Rrp4 [DRSC04434] — droplet/nuclear area B-score, replicate 1: -0.316
fog [DRSC20646] — droplet/nuclear area B-score, replicate 1: -0.416
px [DRSC04708] — droplet/nuclear area B-score, replicate 1: -0.397
px [DRSC23244] — droplet/nuclear area B-score, replicate 1: -0.353
Pitslre [DRSC11874] — droplet/nuclear area B-score, replicate 1: -1.01
Pitslre [DRSC23346] — droplet/nuclear area B-score, replicate 1: -1.47
Polr2J [DRSC02995] — droplet/nuclear area B-score, replicate 1: 1.51
Rpp30 [DRSC00320] — droplet/nuclear area B-score, replicate 1: -1.88
Mst85C [DRSC16746] — droplet/nuclear area B-score, replicate 1: -0.236
GstD5 [DRSC16686] — droplet/nuclear area B-score, replicate 1: 0.197
CG15096 [DRSC06525] — droplet/nuclear area B-score, replicate 1: -1.21
slam [DRSC03240] — droplet/nuclear area B-score, replicate 1: 0.331
Jhbp1 [DRSC12167] — droplet/nuclear area B-score, replicate 1: 0.00875
Nup50 [DRSC06827] — droplet/nuclear area B-score, replicate 1: -1.87
BaraB [DRSC06420] — droplet/nuclear area B-score, replicate 1: 0.904
insb [DRSC06995] — droplet/nuclear area B-score, replicate 1: 2.38
CG11294 [DRSC17777] — droplet/nuclear area B-score, replicate 1: -2.89

Reformatted: 5 of the entries above
CG8944 [DRSC20128]
- droplet/nuclear area B-score, replicate 1: 0.427

CG8944 [DRSC21342]
- droplet/nuclear area B-score, replicate 1: -0.0371

CG3328 [DRSC04357]
- droplet/nuclear area B-score, replicate 1: -1.58

CG42362 + CG42363 [DRSC04265]
- droplet/nuclear area B-score, replicate 1: -1.49

CG5535 [DRSC10514]
- droplet/nuclear area B-score, replicate 1: 0.926
